Drawing on publication PMC8357683, this text covers binding for one substance.

These are yes or no findings as the source states them, for the method shown. In cells and extracts the contact can be indirect. Some entries that bind do so weakly or less than the wild type.

The experiment concerns the target T1, NAD-dependent deacetylase sirtuin 2 (mouse (endogenous in heart tissue)) (UniProt Q8VDQ8).
T1 sequence: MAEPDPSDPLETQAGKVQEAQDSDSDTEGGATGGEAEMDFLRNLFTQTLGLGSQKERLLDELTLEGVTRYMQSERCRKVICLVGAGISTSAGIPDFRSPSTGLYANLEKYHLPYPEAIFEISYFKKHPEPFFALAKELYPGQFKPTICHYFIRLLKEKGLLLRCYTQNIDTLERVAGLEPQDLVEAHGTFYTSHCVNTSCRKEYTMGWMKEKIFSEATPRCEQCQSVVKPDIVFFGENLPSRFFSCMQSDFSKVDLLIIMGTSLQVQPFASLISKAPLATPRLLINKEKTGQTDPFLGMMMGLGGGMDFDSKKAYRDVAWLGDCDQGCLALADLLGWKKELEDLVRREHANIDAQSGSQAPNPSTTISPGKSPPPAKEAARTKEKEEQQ
The experiment in a line: co-IP; mouse heart tissue lysates (3 mg total protein per IP) incubated with primary antibody overnight at 4 °C, Protein G Dynabeads 6 h at 4 °C, one high salt wash and five washes with IP buffer, Western blot; anti-SIRT2 antibody with IgG control; hearts also from AAV-Scramble and AAV-LncHrt knock-down mice (knock-down promoted the interaction).

As for “cyclin-dependent kinase CDK5 (from UniProt P49615 1-292)”, the binding entry was “binds”.
